Laboratory results reported in article PMC8245078, “Development of novel benzofuran-isatin conjugates as potential antiproliferative agents with apoptosis inducing mechanism in Colon cancer” (Journal of Enzyme Inhibition and Medicinal Chemistry, 2021).

System: NCI-55 cancer cell line panel
Experiment: NCI single dose screening (10 µM), whole panel
Type: cell-based, human
Details: number of cell lines with GI % higher than 10%, single dose 10^−5 M

Row | Structure (SMILES) | Sensitive cell lines no.
1 | Cc1c(C(=O)N/N=C2\C(=O)Nc3ccc(F)cc32)oc2ccccc12 [Compound 5b] | 9
2 | Cc1c(C(=O)N/N=C2\C(=O)N(Cc3ccccc3)c3ccccc32)oc2ccccc12 [Compound 7d] | 20
3 | CCCN1C(=O)/C(=N\NC(=O)c2oc3ccccc3c2C)c2cc(Br)ccc21 [Compound 7g] | 6
4 | COc1ccc2c(c1)/C(=N/NC(=O)c1oc3ccccc3c1C)C(=O)N2 [Compound 5d] | 54
5 | Cc1c(C(=O)N/N=C2\C(=O)N(C)c3ccccc32)oc2ccccc12 [Compound 7a] | 7
6 | CCCN1C(=O)/C(=N\NC(=O)c2oc3ccccc3c2C)c2ccccc21 [Compound 7b] | 19
7 | Cc1c(C(=O)N/N=C2\C(=O)Nc3ccc(Br)cc32)oc2ccccc12 [Compound 5c] | 40
